{
  "source": "PubChem BioAssay AID328",
  "about": "(DTP/NCI, 2004)",
  "system": "BDF1 mice, P388 leukemia ip, median survival T/C",
  "assay": "NCI In Vivo Anticancer Drug Screen. Data for tumor model P388 Leukemia (intraperitoneal) in B6D2F1 (BDF1) mice",
  "conditions": "T/C endpoint: median survival time, higher T/C = longer survival",
  "how_it_was_run": "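Reported as T/C, where T is the survival measurement in dosed animals and C the same measurement in vehicle controls.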",
  "note": "The list shows only some results of the screen, not a fair sample: it gathers tests that were run many times, whatever their T/C, doses with no T/C, and many T/C values between a quarter and a half above the control. Other doses and runs of a compound stand elsewhere. T/C is the treated group as % of the vehicle group. Some doses have a count of surviving animals in place of a T/C: the source holds a T/C of zero for them, seemingly a mark for toxic or unscored doses. Some doses without a T/C left all or most animals alive at the check, yet need not have been tolerated: survival well below the control is almost never listed, so the zero probably covers shortened survival too. Counts of survivors are from the toxicity check (mostly the fifth day) where no day follows; animals may have died later. Schedules are NCI's codes, taken here to give the interval after Q, in days (D) or hours (H), and the number of doses after X. Some structures stand for samples that the source files as different forms (salt, stereo form or complex); doses refer to the form tested.",
  "data": [
    {"molecule": "N#CC(CC[N+](=O)[O-])(c1ccccc1)C(c1ccccc1)[N+](=O)[O-]", "note": "(centres undefined)", "values": [
      {"measurement": "survivor count", "setting": "dose: 100.0 mg/kg/injection, schedule: Q01DX001 (ip), vehicle: saline with Tween-80", "value": "6 of 6"},
      {"measurement": "survivor count", "setting": "dose: 200.0 mg/kg/injection, schedule: Q01DX001 (ip), vehicle: saline with Tween-80", "value": "6 of 6"},
      {"measurement": "survivor count", "setting": "dose: 400.0 mg/kg/injection, schedule: Q01DX001 (ip), vehicle: saline with Tween-80", "value": "6 of 6"}
    ]},
    {"molecule": "O=C(CCN1CCCCC1)c1ccccc1", "values": [
      {"measurement": "survivor count", "setting": "dose: 50.0 mg/kg/injection, schedule: Q01DX009 (ip), vehicle: saline", "value": "3 of 6"},
      {"measurement": "survivor count", "setting": "dose: 50.0 mg/kg/injection, schedule: Q04DX003 (ip), vehicle: saline", "value": "3 of 6"},
      {"measurement": "survivor count", "setting": "dose: 100.0 mg/kg/injection, schedule: Q04DX003 (ip), vehicle: saline", "value": "0 of 6"}
    ]},
    {"molecule": "Cc1nc2ccccc2c(Cl)c1C", "values": [
      {"measurement": "survivor count", "setting": "dose: 200.0 mg/kg/injection, schedule: Q01DX009 (ip), vehicle: Klucel (hydroxypropylcellulose) (HPC)", "value": "5 of 6"}
    ]},
    {"molecule": "ClC1=C(Br)C(Br)(Br)C(=C(Br)Br)C1(Br)Br", "values": [
      {"measurement": "survivor count", "setting": "dose: 200.0 mg/kg/injection, schedule: Q04DX003 (ip), vehicle: Klucel (hydroxypropylcellulose) (HPC)", "value": "6 of 6"}
    ]},
    {"molecule": "CC(=O)Nc1ccc2c(c1)C[N+](C)(C1CCCCC1)CO2", "note": "(centres undefined)", "values": [
      {"measurement": "survivor count", "setting": "dose: 100.0 mg/kg/injection, schedule: Q01DX009 (ip), vehicle: saline with Tween-80", "value": "4 of 6"}
    ]}
  ]
}
